From article PMC4887035
Results are given in words; binding and its absence hold for the method and conditions named. In cells and extracts the contact can be indirect.

Biological target: T1, CaSR calcium sensing receptor (UniProt P41180)
T1 sequence: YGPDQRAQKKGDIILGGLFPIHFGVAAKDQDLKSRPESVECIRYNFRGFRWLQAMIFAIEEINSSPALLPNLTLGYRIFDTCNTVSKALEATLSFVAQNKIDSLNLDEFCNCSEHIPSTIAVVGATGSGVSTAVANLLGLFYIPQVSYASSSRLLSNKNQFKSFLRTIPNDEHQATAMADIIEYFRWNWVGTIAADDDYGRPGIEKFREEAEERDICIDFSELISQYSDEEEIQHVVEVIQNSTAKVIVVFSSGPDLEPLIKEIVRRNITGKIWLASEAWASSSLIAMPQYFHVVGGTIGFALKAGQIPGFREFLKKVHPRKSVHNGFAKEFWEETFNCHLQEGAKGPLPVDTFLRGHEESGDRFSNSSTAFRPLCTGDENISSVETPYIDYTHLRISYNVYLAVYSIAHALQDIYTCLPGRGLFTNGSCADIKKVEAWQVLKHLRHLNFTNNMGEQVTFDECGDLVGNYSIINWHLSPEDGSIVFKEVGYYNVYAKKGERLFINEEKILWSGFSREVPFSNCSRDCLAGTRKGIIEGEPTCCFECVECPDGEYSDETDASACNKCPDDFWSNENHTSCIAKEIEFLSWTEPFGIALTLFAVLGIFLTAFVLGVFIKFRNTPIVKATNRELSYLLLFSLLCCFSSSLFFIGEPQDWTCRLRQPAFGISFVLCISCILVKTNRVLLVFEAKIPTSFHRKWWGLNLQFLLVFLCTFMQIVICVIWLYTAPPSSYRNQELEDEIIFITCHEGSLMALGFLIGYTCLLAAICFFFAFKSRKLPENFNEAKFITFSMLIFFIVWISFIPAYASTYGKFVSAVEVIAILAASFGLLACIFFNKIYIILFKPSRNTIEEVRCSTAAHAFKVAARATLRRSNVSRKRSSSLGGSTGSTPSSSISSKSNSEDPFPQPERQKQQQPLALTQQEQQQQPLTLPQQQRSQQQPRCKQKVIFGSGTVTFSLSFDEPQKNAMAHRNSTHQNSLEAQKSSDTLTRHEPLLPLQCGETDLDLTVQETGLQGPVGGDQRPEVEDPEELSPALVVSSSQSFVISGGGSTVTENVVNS
Test: FRET or BRET; quantitative BRET in HEK293 cells transiently transfected with increasing amounts of RLuc donor and Venus acceptor plasmids (total plasmid kept constant with empty pcDNA3.1); BRET ratio Emission530/Emission485 plotted against Venus fluorescence; slopes of low and high luminescence groups (threshold 1.2 a.u.) compared by ANCOVA and two-way ANOVA

binding: no binding
Substance: AT1R-Venus (receptor)
